Data on one molecule can be found in article doi:10.1101/2024.07.30.605797.

These are yes or no findings as the source states them, for the method shown. Sequences can lack the tags named with a protein.

For the assay, the target named is T1, C-terminal His6-tagged VanA-type VanS^127-384 (cytoplasmic domain of the histidine kinase VanS) (UniProt Q06240).
T1 sequence: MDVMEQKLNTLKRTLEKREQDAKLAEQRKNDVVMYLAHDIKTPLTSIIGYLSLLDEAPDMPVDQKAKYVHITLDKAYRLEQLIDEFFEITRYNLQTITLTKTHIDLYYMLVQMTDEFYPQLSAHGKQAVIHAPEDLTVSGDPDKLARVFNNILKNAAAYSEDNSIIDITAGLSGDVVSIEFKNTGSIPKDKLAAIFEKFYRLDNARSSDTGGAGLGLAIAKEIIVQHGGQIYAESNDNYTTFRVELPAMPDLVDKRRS
Kind of assay: differential scanning fluorimetry. A general note: In DSF a fluorescence change marks the thermal transition of the protein.

GGAGHVPEYFVGIGTPISFYG (peptide, UniProt Q9X2V7 38-58, lasso peptide (N-terminal macrolactam ring)) [microcin J25]: the binding result is “no binding (tested: 25 to 200 µM)”.
